Structures are written as SMILES. This is one part of the list. Further columns of the screen follow, without active or inactive calls. Compounds called inactive in the main read-out are mostly missing here. Potencies come from curve fits of mixed quality, noted in brackets.

For 38 compounds, AC50 results are on record in PubChem BioAssay AID445 (National Center for Advancing Translational Sciences (NCATS), 2006).

The experiment is described as follows: IkB Signaling. The conditions noted are these: ABC-DLBCL IkBa-CBG/CBR dual luciferase ratio (green luciferase fused to IkBa over red control in OCI-Ly3 lymphoma cells), 4 h; measured here: control luc red channel unless noted. The gist of the method: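 Luminescence ratio of IκBα-fused green versus native red beetle luciferase in OCI-Ly3 cells, 4 h post-doxycycline with compound; red signal alone, scaled from basal (0%) to zero light (-100%), flagged nonspecific or cytotoxic effects.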
For orientation: AC50 means the concentration giving half of the maximal activity seen. For `CCOc1ccccc1N(CC)C(=O)c1noc2c1COc1ccc(C)cc1-2`, the AC50 is 2.51 µM [falling, full curve, poor fit].

For the compound `O=C(NC1CCCCC1)c1ccc2c(c1)N(Cc1ccc(Cl)cc1)C(=O)c1ccccc1S2=O` (stereo not drawn), the AC50 was 5.01 µM [falling, partial curve].

Regarding `O=C(c1ccc(F)cc1)n1nc(-c2ccccc2)nc1NCc1ccco1`, the AC50 was 15.8 µM [falling, partial curve].

On to `CCn1cc(C(=O)NCCc2ccc(Cl)cc2)c(=O)c2cc(S(=O)(=O)N3CCC(C)CC3)ccc21`, for which the AC50 is 10 µM [falling, partial curve].

In the case of `Cc1ccc(NC(=O)c2oc3ccc(S(=O)(=O)N4CCC5(CC4)OCCO5)cc3c2C)c(C)c1`, the half-maximal activity concentration (AC50) was 31.6 µM [falling, partial curve].

In the case of `O=C(Nc1ccc(S(=O)(=O)N(Cc2ccccc2)c2ccccc2)cc1)c1ccc([N+](=O)[O-])cc1`, the AC50 was 15.8 µM [falling, single point].

In the case of `O=c1c2ccccc2sc2nc(C3CCCCC3)n(Cc3ccco3)c(=O)c12`, the AC50 is 1 µM [falling, partial curve].

`CC(C)CCNC(=O)Nc1cc(C(=O)NCc2cccc(F)c2)ccc1N1CCCC1`: the AC50 was 25.1 µM [falling, single point].

Turning to `COc1ccc2c(c1)CC(C(=O)NCCN1CCN(c3cccc(C)c3C)CC1)CO2` (stereo not drawn), the AC50 was 2.51 µM [falling, partial curve, poor fit].

Take `CCOC(=O)c1ccc(CN(Cc2ccc(C)cc2)S(=O)(=O)c2ccc(NC(C)=O)cc2)cc1`: the AC50 was 39.8 µM [falling, single point].

Turning to `CCn1cc2nc(SCc3ccc(F)cc3)n(Cc3ccc(Cl)cc3)c(=O)c2n1`, the AC50 is 12.6 µM [falling, partial curve].

Consider `CC(=O)Nc1ccc(Nc2nnc(-c3ccc(C)c(S(N)(=O)=O)c3)c3ccccc23)cc1`, for which the AC50 was 39.8 µM [falling, single point].

`C=CCn1c(-c2ccccc2)c[nH]c1=S`: the AC50 is 3.16 µM [falling, partial curve].

As to `CC(C)Cn1cc(C(=O)N2CCN(c3cccc(Cl)c3)CC2)c2c3ccccc3n(C)c2c1=O`, the AC50 was 10 µM [falling, partial curve].

For `CC(=O)N1CCCc2cc(S(=O)(=O)N3CCCC(C(=O)Nc4cccc(Cl)c4C)C3)ccc21` (stereo not drawn), the AC50 was 0.1 µM [falling, full curve, poor fit].

For the compound `Cc1ccc(C)c(OC(=O)CSc2nnc(-c3ccc4c(c3)OCO4)o2)c1`, the AC50 was 25.1 µM [falling, single point].

For `CCOc1cc(C(=O)Nc2ccc(S(=O)(=O)Nc3cc(OC)nc(OC)n3)cc2)cc(OCC)c1OCC`, the AC50 was 2 µM [falling, partial curve].

Consider `COc1ccc(C/C(O)=C(\C#N)c2nc3ccccc3s2)cc1`, for which the AC50 was 25.1 µM [falling, partial curve].

Consider `CCC1=C(c2ccc(C)cc2)S(=O)(=O)N=C1N1CCC(C(=O)NCc2ccccc2Cl)CC1`, for which the AC50 was 12.6 µM [falling, partial curve].

On to `CCCCCOC(=O)c1ccc(OC(=O)c2sc3ncn(Cc4cccc(F)c4)c(=O)c3c2C)cc1`, for which the half-maximal activity concentration (AC50) is 2.51 µM [rising, partial curve].

Turning to `CCCN(CCC)CCNC(=O)C1CCCN(S(=O)(=O)c2cccc3nsnc23)C1` (stereo not drawn), the AC50 is 0.794 µM [rising, full curve, poor fit].

For the compound `Cc1ccc(C)c(N2CCN(CCCNC(=O)c3nnc(Cc4ccc(F)cc4Cl)o3)CC2)c1`, the half-maximal activity concentration (AC50) is 25.1 µM [falling, partial curve].

Consider `Cc1cccc(C#Cc2ccccc2)n1`, for which the AC50 is 0.631 µM [rising, full curve, poor fit].

Consider `CCc1ccc(NC(=O)Cn2c(=O)n(CC3CCCO3)c(=O)c3cc(OC)c(OC)cc32)cc1` (stereo not drawn), for which the concentration at half-maximal activity (AC50) was 15.8 µM [falling, partial curve, poor fit].

For the compound `Cc1ccc(-c2cc(C(F)(F)F)c(C#N)c(SCC(=O)O)n2)cc1`, the AC50 was 1.58 µM [falling, partial curve].

With `COc1ccc(-c2nc(NC(=O)C3CCN(c4nc5ccccc5o4)CC3)sc2C)cc1`, the concentration at half-maximal activity (AC50) is 12.6 µM [falling, partial curve].

With `O=C(CN1C(=O)C2CCCCN2c2ccc(C(=O)N3CCCC3)cc21)NCc1cccc(F)c1` (stereo not drawn), the AC50 was 39.8 µM [falling, single point].

With `COc1ccc(OC)c(C2C(C#N)=C(N)Oc3c2c(C)nn3-c2ccc(C)cc2)c1` (stereo not drawn), the AC50 was 3.16 µM [falling, full curve] [measured here: IkB-luc green channel].

For the compound `Cc1ccccc1CNC(=O)C(=O)NCC(c1cccs1)S(=O)(=O)c1ccc(Cl)cc1` (stereo not drawn), the concentration at half-maximal activity (AC50) is 15.8 µM [falling, single point].

`O=C(NCc1ccccc1)c1ccc2c(c1)nc1n2CCCCC1`: the AC50 was 15.8 µM [falling, single point].

`CCn1ccc(C(=O)Nc2ccc(S(=O)(=O)Nc3ccccc3OC)cc2)n1`: the AC50 is 20 µM [falling, partial curve].

As to `COc1cc2c(cc1OC)CN(C(=O)CC1CC3CCC1C3)CC2` (stereo not drawn), the AC50 is 7.94 µM [falling, full curve].

`Cc1c(Cl)cccc1-n1ncc(C(=O)Nc2ccc(F)cc2F)c1C1CCN(C(=O)OC(C)(C)C)CC1`: the AC50 is 15.8 µM [falling, partial curve].

Turning to `COC(=O)C1CCN(C(c2ccccc2)c2sc3nc(-c4ccco4)nn3c2O)CC1` (stereo not drawn), the AC50 was 15.8 µM [rising, partial curve].

With `CCN(CC)c1ccc(NC(=O)CN2C(=O)c3cccnc3Sc3ccccc32)c(C)c1`, the AC50 was 15.8 µM [falling, partial curve].

Take `CC(=O)N1CCc2c(sc3c2c(=O)n(CCc2ccccc2)c(=O)n3Cc2cccc(C)c2)C1`: the AC50 was 6.31 µM [falling, single point].

Regarding `Nc1[nH]nc2nc(N3CCOCC3)nc(-c3ccccc3)c12`, the concentration at half-maximal activity (AC50) is 39.8 µM [falling, single point].

Regarding `COc1ccc2oc(-c3ccc(C)c(NC(=O)CSc4ccc(Cl)cc4)c3)nc2c1`, the AC50 was 7.94 µM [falling, full curve].
